Source: publication PMC4695110
Results are given in words; binding and its absence hold for the method and conditions named. In cells and extracts the contact can be indirect. Some binding calls cover weakened binding; strength is not graded here. Each block holds one molecule with its values, some of them ahead of it.

Amino acid sequences for entries named in this document (tags omitted).
UniProt Q04206: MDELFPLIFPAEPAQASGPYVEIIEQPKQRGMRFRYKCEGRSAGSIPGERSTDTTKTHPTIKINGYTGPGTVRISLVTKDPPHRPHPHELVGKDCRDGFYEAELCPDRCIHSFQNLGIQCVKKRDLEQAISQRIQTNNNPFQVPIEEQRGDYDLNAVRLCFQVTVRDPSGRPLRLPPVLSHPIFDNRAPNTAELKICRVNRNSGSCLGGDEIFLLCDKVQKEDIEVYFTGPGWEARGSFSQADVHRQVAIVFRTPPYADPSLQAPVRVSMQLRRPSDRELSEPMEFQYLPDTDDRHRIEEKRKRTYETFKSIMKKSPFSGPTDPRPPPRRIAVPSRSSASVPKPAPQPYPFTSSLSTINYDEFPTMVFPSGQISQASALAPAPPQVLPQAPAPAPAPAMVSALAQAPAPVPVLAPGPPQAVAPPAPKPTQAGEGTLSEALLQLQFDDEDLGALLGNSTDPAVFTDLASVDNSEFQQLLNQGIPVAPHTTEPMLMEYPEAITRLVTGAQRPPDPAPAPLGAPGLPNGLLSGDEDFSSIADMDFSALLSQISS

Columns and labels:
[1] = target: T1, c-Rel (human (endogenous in DLBCL cell lines MS, DB, LR, LP)) (UniProt Q04864); assay: co-IP; nuclear extract of MS and DB (GCB) and LR and LP (ABC) DLBCL cells; precipitated with p65, c-Rel, p52 and RelB antibodies, normal rabbit IgG as negative control; Western blot with p65, c-Rel, p52 and RelB antibodies
T1 sequence: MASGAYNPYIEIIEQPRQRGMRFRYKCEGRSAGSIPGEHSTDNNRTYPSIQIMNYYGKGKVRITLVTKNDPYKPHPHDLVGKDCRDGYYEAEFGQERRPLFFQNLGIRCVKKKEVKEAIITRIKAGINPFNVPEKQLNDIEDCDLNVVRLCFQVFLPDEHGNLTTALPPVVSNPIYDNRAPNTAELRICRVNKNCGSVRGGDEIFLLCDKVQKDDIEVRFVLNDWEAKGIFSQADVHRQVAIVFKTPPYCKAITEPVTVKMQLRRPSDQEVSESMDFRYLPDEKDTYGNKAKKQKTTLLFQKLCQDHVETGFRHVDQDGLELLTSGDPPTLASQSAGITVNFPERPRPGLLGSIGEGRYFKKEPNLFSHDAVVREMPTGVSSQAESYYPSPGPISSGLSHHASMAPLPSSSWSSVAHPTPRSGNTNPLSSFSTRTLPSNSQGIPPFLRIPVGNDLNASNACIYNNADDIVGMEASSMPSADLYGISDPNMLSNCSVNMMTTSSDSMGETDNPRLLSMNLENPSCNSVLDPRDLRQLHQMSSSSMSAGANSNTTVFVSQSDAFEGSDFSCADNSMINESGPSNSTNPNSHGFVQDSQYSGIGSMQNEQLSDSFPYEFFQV

[2] = target: T2, c-Rel (human (endogenous in DLBCL cell lines MS, DB, LR, LP)), Q04864; assay: as above; conditions: remark: other sources report otherwise
T2 chain: T1 sequence

binding [1]: binds
Molecule: p65 (from UniProt Q04206 1-551)

binding [2]: binds
B1: RelB, Q01201 1-579 (protein)
chain: MLRSGPASGPSVPTGRAMPSRRVARPPAAPELGALGSPDLSSLSLAVSRSTDELEIIDEYIKENGFGLDGGQPGPGEGLPRLVSRGAASLSTVTLGPVAPPATPPPWGCPLGRLVSPAPGPGPQPHLVITEQPKQRGMRFRYECEGRSAGSILGESSTEASKTLPAIELRDCGGLREVEVTACLVWKDWPHRVHPHSLVGKDCTDGICRVRLRPHVSPRHSFNNLGIQCVRKKEIEAAIERKIQLGIDPYNAGSLKNHQEVDMNVVRICFQASYRDQQGQMRRMDPVLSEPVYDKKSTNTSELRICRINKESGPCTGGEELYLLCDKVQKEDISVVFSRASWEGRADFSQADVHRQIAIVFKTPPYEDLEIVEPVTVNVFLQRLTDGVCSEPLPFTYLPRDHDSYGVDKKRKRGMPDVLGELNSSDPHGIESKRRKKKPAILDHFLPNHGSGPFLPPSALLPDPDFFSGTVSLPGLEPPGGPDLLDDGFAYDPTAPTLFTMLDLLPPAPPHASAVVCSGGAGAVVGETPGPEPLTLDSYQAPGPGDGGTASLVGSNMFPNHYREAAFGGGLLSPGPEAT

binding [1]: binds
B2: p52 (protein, UniProt Q00653 1-454)
chain: MESCYNPGLDGIIEYDDFKLNSSIVEPKEPAPETADGPYLVIVEQPKQRGFRFRYGCEGPSHGGLPGASSEKGRKTYPTVKICNYEGPAKIEVDLVTHSDPPRAHAHSLVGKQCSELGICAVSVGPKDMTAQFNNLGVLHVTKKNMMGTMIQKLQRQRLRSRPQGLTEAEQRELEQEAKELKKVMDLSIVRLRFSAFLRASDGSFSLPLKPVISQPIHDSKSPGASNLKISRMDKTAGSVRGGDEVYLLCDKVQKDDIEVRFYEDDENGWQAFGDFSPTDVHKQYAIVFRTPPYHKMKIERPVTVFLQLKRKRGGDVSDSKQFTYYPLVEDKEEVQRKRRKALPTFSQPFGGGSHMGGGSGGAAGGYGGAGGGGSLGFFPSSLAYSPYQSGAGPMGCYPGGGGGAQMAATVPSRDSGEEAAEPSAPSRTPQCEPQAPEMLQRAREYNARLFGLA
